This assay concerns the target Fyn kinase (endogenous, in gastrocnemius skeletal muscle and 3T3L1 adipocyte extracts) (mouse) (UniProt P39688). Kind of assay: co-immunoprecipitation: extracts precipitated with rabbit polyclonal Fyn antibody, blotted with monoclonal LKB1 antibody.

By UniProt entry, the sequences of proteins in these tests, tags left out. Where a name states a change or a piece, a line headed by the entry shows the natural chain unless it says otherwise. Chains listed by the source or under a name are the forms on record and can include a tag or linker.
Fyn kinase (endogenous, in gastrocnemius skeletal muscle and 3T3L1 adipocyte extracts) (P39688, form named): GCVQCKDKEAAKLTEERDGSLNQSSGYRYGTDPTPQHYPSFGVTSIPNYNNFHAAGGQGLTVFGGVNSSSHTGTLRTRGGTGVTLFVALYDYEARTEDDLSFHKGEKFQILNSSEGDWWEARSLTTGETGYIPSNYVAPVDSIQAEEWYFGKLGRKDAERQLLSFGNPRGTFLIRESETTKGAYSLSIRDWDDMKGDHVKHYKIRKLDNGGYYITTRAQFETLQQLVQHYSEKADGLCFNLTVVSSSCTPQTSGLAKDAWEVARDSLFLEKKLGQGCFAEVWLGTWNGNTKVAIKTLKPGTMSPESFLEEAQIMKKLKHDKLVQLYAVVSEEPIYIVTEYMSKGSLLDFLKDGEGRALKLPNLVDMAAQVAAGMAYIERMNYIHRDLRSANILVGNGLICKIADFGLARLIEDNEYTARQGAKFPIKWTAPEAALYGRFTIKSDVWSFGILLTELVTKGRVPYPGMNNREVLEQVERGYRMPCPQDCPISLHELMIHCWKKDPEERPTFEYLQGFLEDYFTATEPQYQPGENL

These are yes or no findings as the source states them, for the method shown. In cells and extracts the contact can be indirect. Some entries that bind do so weakly or less than the wild type.

This passage reports binding results from US20130039857A1, “METHODS OF SUPPRESSING CANCER, INCREASING WEIGHT LOSS AND/OR INCREASING INSULIN SENSITIVITY” (priority 2010, published 2013).

B1: LKB1 (endogenous, in skeletal muscle and 3T3L1 adipocyte extracts) (enzyme, mouse, UniProt Q9WTK7 1-433, looked up)
chain: MDVADPEPLGLFSEGELMSVGMDTFIHRIDSTEVIYQPRRKRAKLIGKYLMGDLLGEGSYGKVKEVLDSETLCRRAVKILKKKKLRRIPNGEANVKKEIQLLRRLRHRNVIQLVDVLYNEEKQKMYMVMEYCVCGMQEMLDSVPEKRFPVCQAHGYFRQLIDGLEYLHSQGIVHKDIKPGNLLLTTNGTLKISDLGVAEALHPFAVDDTCRTSQGSPAFQPPEIANGLDTFSGFKVDIWSAGVTLYNITTGLYPFEGDNIYKLFENIGRGDFTIPCDCGPPLSDLLRGMLEYEPAKRFSIRQIRQHSWFRKKHPLAEALVPIPPSPDTKDRWRSMTVVPYLEDLHGRAEEEEEEDLFDIEDGIIYTQDFTVPGQVLEEEVGQNGQSHSLPKAVCVNGTEPQLSSKVKPEGRPGTANPARKVCSSNKIRRLSAC
For the molecule B1, the binding result was “binds”.
